# Test results reported in the supplement of paper PMC8728848.
# Some of the results follow.
# B1: LlpA1 (Pseudomonas fluorescens), Q4KHC3 (protein)
# chain: MGSSHHHHHHSSGLVPRGSHMAWIRYDFTDNGSSVLPARYYMAPNQYLQSPNKRFKLLFQADGNLALYDGAQLAWVADQNTPFTNVSKGNKKDPMMVFMNYGFVLDDPLRGRIWSTTPSDPTMGSREDASLRAFTQVQDDGNIVTVDTIPHWYAPNGRVFTPAVGAAMIIGGTTELVPGQFYSAGEHSLVFQGDGNLVVYGPNSSVIWATYTQNKGGVRCVMQEDGNLVIYAANNGVVWQSGTGGHPGATIRLQANGSFTIVTERPVWARFGYTPTIKPPRVFYPDHKWKTGSYTWNNVF
# Key:
# Experiment in all cases: glycan array binding signal (z-score within array); higher = stronger binding
# Conditions in all cases: glycan notation: IUPAC condensed, linker removed
# Gal3S(b1-3)GalNAc = target: Gal3S(b1-3)GalNAc
# How it was run: (§1)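 Negative Z-scores can be read as non-binding. The Z-score is calculated within each array and then averaged across arrays of one protein sequence at different concentrations or buffers and across linkers. Arrays, 3228 in all, were curated from the Consortium for Functional Glycomics database and kept only where the protein sequence was available.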
# Gal3S(b1-3)GlcNAc = target: Gal3S(b1-3)GlcNAc
# How it was run: as §1
# [1] = target: Gal3S(b1-3)[Fuc(a1-4)]GlcNAc
# How it was run: as §1
# Gal3S(b1-4)Glc = target: Gal3S(b1-4)Glc
# How it was run: as §1
# Gal3S(b1-4)Glc6S = target: Gal3S(b1-4)Glc6S
# How it was run: as §1
# Gal3S(b1-4)GlcNAc = target: Gal3S(b1-4)GlcNAc
# How it was run: as §1
# Gal3S(b1-4)GlcNAc6S = target: Gal3S(b1-4)GlcNAc6S
# How it was run: as §1
# [2] = target: Gal3S(b1-4)[Fuc(a1-3)]Glc
# How it was run: as §1
# [3] = target: Gal3S(b1-4)[Fuc(a1-3)]Glc6S
# How it was run: as §1
# [4] = target: Gal3S(b1-4)[Fuc(a1-3)]GlcNAc
# How it was run: as §1
# [5] = target: Gal3S(b1-4)[Fuc(a1-3)]GlcNAc6S
# How it was run: as §1
# Gal3S4S(b1-4)GlcNAc = target: Gal3S4S(b1-4)GlcNAc
# How it was run: as §1
# Gal3S6S(b1-4)GlcNAc = target: Gal3S6S(b1-4)GlcNAc
# How it was run: as §1
# Gal3S6S(b1-4)GlcNAc6S = target: Gal3S6S(b1-4)GlcNAc6S
# How it was run: as §1
# Gal4S(b1-4)GlcNAc = target: Gal4S(b1-4)GlcNAc
# How it was run: as §1
# Gal4S6S(b1-4)GlcNAc = target: Gal4S6S(b1-4)GlcNAc
# How it was run: as §1
# Gal6P(b1-4)GlcNAc = target: Gal6P(b1-4)GlcNAc
# How it was run: as §1
# Gal6S(b1-3)GlcNAc = target: Gal6S(b1-3)GlcNAc
# How it was run: as §1
# Gal6S(b1-3)GlcNAc6S = target: Gal6S(b1-3)GlcNAc6S
# How it was run: as §1
# Gal6S(b1-4)Glc = target: Gal6S(b1-4)Glc
# How it was run: as §1
# Gal6S(b1-4)Glc6S = target: Gal6S(b1-4)Glc6S
# How it was run: as §1
# Gal6S(b1-4)GlcNAc = target: Gal6S(b1-4)GlcNAc
# How it was run: as §1
# Gal6S(b1-4)GlcNAc6S = target: Gal6S(b1-4)GlcNAc6S
# How it was run: as §1
# GalNAc(a1-3)Gal = target: GalNAc(a1-3)Gal
# How it was run: as §1
# GalNAc(a1-3)GalNAc = target: GalNAc(a1-3)GalNAc
# How it was run: as §1
# [6] = target: GalNAc(a1-3)GalNAc(b1-3)Gal(a1-4)Gal(b1-4)Glc
# How it was run: as §1
# [7] = target: GalNAc(a1-3)GalNAc(b1-3)Gal(a1-4)Gal(b1-4)GlcNAc
# How it was run: as §1
# GalNAc(b1-3)Gal = target: GalNAc(b1-3)Gal
# How it was run: as §1
# [8] = target: GalNAc(b1-3)Gal(a1-4)Gal(b1-4)GlcNAc
# How it was run: as §1
# [9] = target: GalNAc(b1-3)Gal(a1-4)Gal(b1-4)GlcNAc(b1-3)Gal(b1-4)Glc
# How it was run: as §1
# [10] = target: GalNAc(b1-3)Gal(a1-6)Gal(b1-4)Glc
# How it was run: as §1
# GalNAc(b1-3)GalNAc = target: GalNAc(b1-3)GalNAc
# How it was run: as §1
# GalNAc(b1-3)GlcNAc = target: GalNAc(b1-3)GlcNAc
# How it was run: as §1
# GalNAc(b1-4)Gal(b1-4)Glc = target: GalNAc(b1-4)Gal(b1-4)Glc
# How it was run: as §1
# GalNAc(b1-4)GlcNAc = target: GalNAc(b1-4)GlcNAc
# How it was run: as §1
# [11] = target: GalNAc(b1-4)GlcNAc(b1-2)Man
# How it was run: as §1
# [12] = target: GalNAc(b1-4)GlcNAc(b1-2)Man(a1-3)[GalNAc(b1-4)GlcNAc(b1-2)Man(a1-6)]Man(b1-4)GlcNAc(b1-4)GlcNAc
# How it was run: as §1
binder,measurement,setting,value
B1,glycan array binding signal (z-score),Gal3S(b1-3)GalNAc,-0.814
same,glycan array binding signal (z-score),Gal3S(b1-3)GlcNAc,-0.198
same,glycan array binding signal (z-score),[1],-0.125
same,glycan array binding signal (z-score),Gal3S(b1-4)Glc,-0.397
same,glycan array binding signal (z-score),Gal3S(b1-4)Glc6S,-0.494
same,glycan array binding signal (z-score),Gal3S(b1-4)GlcNAc,-0.033
same,glycan array binding signal (z-score),Gal3S(b1-4)GlcNAc6S,-0.806
same,glycan array binding signal (z-score),[2],-0.518
same,glycan array binding signal (z-score),[3],0.321
same,glycan array binding signal (z-score),[4],-0.22
same,glycan array binding signal (z-score),[5],1.43
same,glycan array binding signal (z-score),Gal3S4S(b1-4)GlcNAc,-0.125
same,glycan array binding signal (z-score),Gal3S6S(b1-4)GlcNAc,0.103
same,glycan array binding signal (z-score),Gal3S6S(b1-4)GlcNAc6S,0.576
same,glycan array binding signal (z-score),Gal4S(b1-4)GlcNAc,0.315
same,glycan array binding signal (z-score),Gal4S6S(b1-4)GlcNAc,-0.461
same,glycan array binding signal (z-score),Gal6P(b1-4)GlcNAc,-0.476
same,glycan array binding signal (z-score),Gal6S(b1-3)GlcNAc,0.571
same,glycan array binding signal (z-score),Gal6S(b1-3)GlcNAc6S,-0.202
same,glycan array binding signal (z-score),Gal6S(b1-4)Glc,-0.314
same,glycan array binding signal (z-score),Gal6S(b1-4)Glc6S,0.637
same,glycan array binding signal (z-score),Gal6S(b1-4)GlcNAc,0.079
same,glycan array binding signal (z-score),Gal6S(b1-4)GlcNAc6S,-0.144
same,glycan array binding signal (z-score),GalNAc(a1-3)Gal,0.451
same,glycan array binding signal (z-score),GalNAc(a1-3)GalNAc,0.146
same,glycan array binding signal (z-score),[6],-0.323
same,glycan array binding signal (z-score),[7],-0.542
same,glycan array binding signal (z-score),GalNAc(b1-3)Gal,-0.721
same,glycan array binding signal (z-score),[8],-0.435
same,glycan array binding signal (z-score),[9],-0.126
same,glycan array binding signal (z-score),[10],0.158
same,glycan array binding signal (z-score),GalNAc(b1-3)GalNAc,-0.296
same,glycan array binding signal (z-score),GalNAc(b1-3)GlcNAc,0.019
same,glycan array binding signal (z-score),GalNAc(b1-4)Gal(b1-4)Glc,0.17
same,glycan array binding signal (z-score),GalNAc(b1-4)GlcNAc,-0.039
same,glycan array binding signal (z-score),[11],-0.701
same,glycan array binding signal (z-score),[12],-0.416

# Part of the list above, bar-delimited.
binder | measurement | setting | value
B1 | glycan array binding signal (z-score) | Gal3S(b1-3)GalNAc | -0.814
same | glycan array binding signal (z-score) | [2] | -0.518
